Measured values taken from paper PMC5942373 (Beilstein Journal of Organic Chemistry, 2018).
Strings that start with PEPTIDE1 are HELM notation: dots part the residues, brackets hold end groups and non-standard residues.

Experiment: general procedure: Fmoc solid-phase peptide synthesis; Rink-Amide MBHA resin; DIC/HOBt
Settings: whole synthesis, overall, on starting amount and capacity of the resin

Substance	isolated yield
Dau=Aoa-GFLGK(c[CONH-PNGRE]-GG)-NH2	6.2%
PEPTIDE1{[Dau_Aoa].G.F.L.G.K.[am]}|PEPTIDE2{A.N.G.R.E.G.G}$PEPTIDE1,PEPTIDE2,6:R3-7:R2|PEPTIDE2,PEPTIDE2,1:R1-5:R3$$$V2.0	2.2%
PEPTIDE1{[Dau_Aoa].G.F.L.G.K.[am]}|PEPTIDE2{S.N.G.R.E.G.G}$PEPTIDE1,PEPTIDE2,6:R3-7:R2|PEPTIDE2,PEPTIDE2,1:R1-5:R3$$$V2.0	1.8%
PEPTIDE1{[Dau_Aoa].G.F.L.G.K.[am]}|PEPTIDE2{[Nle].N.G.R.E.G.G}$PEPTIDE1,PEPTIDE2,6:R3-7:R2|PEPTIDE2,PEPTIDE2,1:R1-5:R3$$$V2.0	10.6%
